Measurements as given in patent publication US20220288048A1, “PIMAVANSERIN FOR TREATING SCHIZOPHRENIA OR FOR TREATING PSYCHOSIS SECONDARY TO NEURODEGENERATIVE DISORDERS OR DEPRESSIVE DISORDER” (ACADIA Pharmaceuticals Inc., priority 2019, published 2022).
At least one structure is not confirmed: it was looked up by name or label, or the drawing left a doubt.

Tested on: scPCP+ARS(2h) treated male C57BL/6J mice
Assay: 10-min social interaction test in scPCP-treated mice given 2 h acute restraint stress (treatment-resistant model)
Format: in vivo
Settings: risperidone 0.2, olanzapine 1, aripiprazole 1 or pimavanserin 3 mg/kg ip alone, 45 min prior to test
Description: Briefly, mice were habituated to the test arena (i.e., the NOR box) for 30 minutes prior to the test day. Pairs of mice, unfamiliar to each other, received either the same treatment (e.g., vehicle and vehicle; N=10 pairs) or different treatments (e.g., vehicle; N=10 and phencyclidine (PCP) 10 mg/kg; N=10). After washout, they were placed in the test arena together for 10 minutes. A heavy object made of Plexiglas or metal was placed in the center of the test arena to quantify the time and nature of interaction of the test animals with an unfamiliar object or an unfamiliar animal. After the 10 min test phase, the object and the arena were cleaned with 70% ethanol to remove any olfactory trails. Behavior was recorded on video for subsequent blind scoring.
The following four behaviors were scored for each animal: • a) Sniffing: A normal mouse engages in sniffing the con-specific mouse's body, including the anogenital area • b) Following: A normal mouse pursues a con-specific mouse around the arena • c) Avoiding: A normal mouse avoids the con-specific mouse and move away from a pursuing mouse if approached • d) Object Exploration: A normal mouse explores the object that is placed in the center of the test arena. […]
The behavioral assay, ARS protocol, and scPCP-treatment as described in Example 2 were used. […] Plasma levels of risperidone were measured using a Triple Quad 6500+ mass spectrometer.

## Cc1cc2c(s1)Nc1ccccc1N=C2N1CCN(C)CC1 [olanzapine]
  Able to restore sniffing or decrease avoidance (SI deficit), drug alone: Neither
